These results are taken from article PMC5296651.

By UniProt entry, the sequences of proteins in these tests, tags left out.
UniProt Q92769: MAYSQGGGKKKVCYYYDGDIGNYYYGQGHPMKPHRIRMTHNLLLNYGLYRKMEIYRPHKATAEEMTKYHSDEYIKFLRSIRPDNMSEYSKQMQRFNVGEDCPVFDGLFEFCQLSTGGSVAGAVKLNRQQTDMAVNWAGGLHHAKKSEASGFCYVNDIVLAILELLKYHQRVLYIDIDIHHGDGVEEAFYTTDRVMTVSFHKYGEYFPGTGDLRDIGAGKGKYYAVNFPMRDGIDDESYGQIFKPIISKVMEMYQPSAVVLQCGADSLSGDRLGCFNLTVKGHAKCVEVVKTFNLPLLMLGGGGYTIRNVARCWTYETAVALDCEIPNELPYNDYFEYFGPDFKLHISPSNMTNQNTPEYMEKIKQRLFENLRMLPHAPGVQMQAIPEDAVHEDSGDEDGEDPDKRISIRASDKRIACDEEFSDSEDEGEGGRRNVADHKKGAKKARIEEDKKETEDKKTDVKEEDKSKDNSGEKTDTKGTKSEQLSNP

Like-named read-outs stand apart in the source and are kept apart here. No constants are given. Whether binding was seen depends on the method and setting. Binding seen in cells or lysates may run through a third protein. These calls come from enrichment with a bait or labelling near it, and not all partners need be listed.

The target of assay [1] is T1, HOP homeobox (HOPX), stably overexpressed in CNE2 and SUNE1 cells (human) (UniProt Q9BPY8).
T1 sequence: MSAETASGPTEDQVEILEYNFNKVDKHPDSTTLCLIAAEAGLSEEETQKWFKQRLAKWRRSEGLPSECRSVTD
Briefly: affinity purification with mass spectrometry; immunoprecipitation with anti-HOPX antibody (anti-IgG as negative control) from lysate of SUNE1 cells with stable HOPX overexpression, overnight at 4 °C, Protein A/G Sepharose beads; mass spectrometry.

The target in assay [2] is T1, HOP homeobox (HOPX), stably overexpressed in CNE2 and SUNE1 cells (human). Described as above. The source holds these as a separate data set.

On to “histone deacetylases 2 (HDAC2) (from UniProt Q92769 1-488)”, for which the binding entry in assay [1] is “binds”.

B1: serum response factor (SRF) (protein, UniProt P11831 1-508)
chain: MLPTQAGAAAALGRGSALGGSLNRTPTGRPGGGGGTRGANGGRVPGNGAGLGPGRLEREAAAAAATTPAPTAGALYSGSEGDSESGEEEELGAERRGLKRSLSEMEIGMVVGGPEASAAATGGYGPVSGAVSGAKPGKKTRGRVKIKMEFIDNKLRRYTTFSKRKTGIMKKAYELSTLTGTQVLLLVASETGHVYTFATRKLQPMITSETGKALIQTCLNSPDSPPRSDPTTDQRMSATGFEETDLTYQVSESDSSGETKDTLKPAFTVTNLPGTTSTIQTAPSTSTTMQVSSGPSFPITNYLAPVSASVSPSAVSSANGTVLKSTGSGPVSSGGLMQLPTSFTLMPGGAVAQQVPVQAIQVHQAPQQASPSRDSSTDLTQTSSSGTVTLPATIMTSSVPTTVGGHMMYPSPHAVMYAPTSGLGDGSLTVLNAFSQAPSTMQVSHSQVQEPGGVPQVFLTASSGTVQIPVSAVQLHQMAVIGQQAGSSSNLTELQVVNLDTAHSTKSE
For B1, the binding entry in assay [2] is on record as “binds”.
